Reference: publication PMC2386467
For at least one entry, the source does not settle the construct or the ends of the probe. At least one verdict rests on a figure or table, not on a statement of the authors.

Test system: Rap2.4a (Arabidopsis thaliana)
Assay: EMSA
Details: EMSA: 2.5 ug protein, 20 ng DNA, 0.5x TBE, 20 min room temperature, 6-7% native PAGE, anti-His blot; recombinant protein; protein details: His; letters put together from the description

## CTCCGGTCACGCGATTCAAC (double strand) [wild-type CE3-like element (20 bp)]
  binding result: binds
